Here are results for 1 sequence from PMC3143129.

Construct, isoform or probe ends are uncertain for at least one entry. Results from cells or extracts need not show a direct contact.

The data set relates to SATB1 + JUNB. Nature of the data set: EMSA + LC-MS/MS of band. As to conditions: NFAT1-deficient Th2 nuclear extract, anti-CD3 6 h, signal much stronger than with WT Th2 extract; 10 mM Tris pH 7.5, 0.5 mM MgCl2, 80 mM NaCl, 2.5 mM DTT, 4% glycerol, 1 mM beta-mercaptoethanol, 10 ug nuclear extract, 1 h on ice; 5% PAGE in 0.25x TBE at 4 C; protein in an extract; label: 32P 5' end. In general terms: In EMSA bound probe runs differently from free probe, usually more slowly.

With “CTGGTGTAATAAAATTTTCCAATGTAAACTCATTT (double strand) [IL-4 promoter P2 (-196 to -163)]”, the binding result is listed as “binds”.
